Data reported in patent US20200054723A1.

Legend:
[1] = biological target: baboon Siglec-8 on baboon eosinophils (baboon); experiment: flow cytometry on peripheral blood eosinophils
[2] = biological target: baboon Siglec-8 on baboon eosinophils (baboon); experiment: flow cytometry on baboon peripheral blood eosinophils

| binding [1] | binding [2] | Binder |
| --- | --- | --- |
| binds |  | murine 1H10 antibody (antibody, mouse IgG1, V domains shown) VH: EVQLQQSGAELVRPGASVKLSCTASGFNIKDYYMYWVKQRPEQGLEWIGRIAPEDGDTEYAPKFQGKATVTADTSSNTAYLHLSSLTSEDTAVYYCTTEGNYYGSSILDYWGQGTTLTVSS VL: DIQMTQTTSSLSASLGDRVTISCRASQDITNYLNWYQQKPDGTVKLLIYFTSRLHSGVPSRFSGSGSGTDYSLTISNLEQEDIATYFCQQGNTLPWTFGGGTKLEIK |
|  | no binding (tested: saturating amounts) | murine 1C3 antibody (antibody, mouse IgG2a, V domains shown) VH: EVQVVESGGDLVKSGGSLKLSCAASGFPFSSYAMSWVRQTPDKRLEWVAIISSGGSYTYYSDSVKGRFTISRDNAKNTLYLQMSSLKSEDTAMYYCARHETAQAAWFAYWGQGTLVTVSA VL: QIVLTQSPAIMSASPGEKVTMTCSASSSVSYMHWYQQKSGTSPKRWIYDTSKLAYGVPARFSGSGSGTSYSLTISSMEAEDAATYYCQQWSSNPPTFGGGTKLEIK |

These are yes or no findings as the source states them, for the method shown. For some assays here: Binding calls can cover weak binding; strength is not graded here.
